The values that follow come from the supplement of paper PMC11659162.

± gives the standard deviation of the averaged measurements. Some of the results follow. This is a noisy data set.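 The cells are a human neuroglioma line carrying a green fluorescent autophagy reporter.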

One assay has as its system H4 GFP-LC3. The assay can be described thus: cell viability (scaled to control) (fraction of control); higher = more viable cells. The note with it: 6 h.
Take `CNCC(O)c1ccc(O)c(O)c1` (racemic) (5 µM): the cell viability worked out at 1.23.

For `NCCc1c[nH]cn1` (5 µM), the cell viability is 0.988.

Regarding `N[C@@H](CCC(=O)O)C(=O)O` (5 µM), the cell viability was found to be 1.07. On the same count and under the same terms, the result for `Nc1ncnc2c1ncn2[C@@H]1O[C@H](COP(=O)(O)CP(=O)(O)OP(=O)(O)O)[C@@H](O)[C@H]1O` (5 µM) reads 0.98; that for `C=CCn1c(=O)c2c(nc(-c3ccccc3)n2C)n(C)c1=O` (5 µM), 1.02; that for `O=C(Nc1cccc(C(=O)Nc2ccc(S(=O)(=O)O)c3cc(S(=O)(=O)O)cc(S(=O)(=O)O)c23)c1)Nc1cccc(C(=O)Nc2ccc(S(=O)(=O)O)c3cc(S(=O)(=O)O)cc(S(=O)(=O)O)c23)c1` (5 µM), 0.919.

Turning to `N[C@@H](Cc1cc(I)c(Oc2ccc(O)c(I)c2)c(I)c1)C(=O)O` [Triiodothyronine] (5 µM), the cell viability worked out at 1.05. The same measure, in the same setting: next, `Cn1c(=O)c2nc(C3CCCC3)[nH]c2n(C)c1=O` (5 µM): 1.06; `N=C(N)c1ccc(OCCCCCOc2ccc(C(=N)N)cc2)cc1` (5 µM): 1.11; `CN1CCN(CCc2ccc(Cl)c(Cl)c2)CC1` (5 µM): 1.06. In turn, `Cc1ccc(N(CC2=NCCN2)c2cccc(O)c2)cc1` (5 µM) returned a cell viability of 0.85. Turning to `C=CC(N)CCC(=O)O` (stereo not given) (5 µM), the cell viability is 1.03. Still for that read-out and setting: the result for `CCN(Cc1ccncc1)C(=O)C(CO)c1ccccc1` (stereo not given) (5 µM) reads 0.917.

For the molecule `CC(C)(C)NCC(O)COc1cccc2[nH]c(=O)[nH]c12` (stereo not given) (5 µM), the cell viability was determined as 0.592. On the same count and under the same terms, next, `N=C(N)NCCCCN` (5 µM): 0.918; `O=C(OCCN1CCCCC1)c1c[nH]c2ccccc12` (5 µM): 0.743. Regarding `NC[C@@H]1O[C@H](c2ccccc2)Cc2c1ccc(O)c2O` (5 µM), the cell viability stood at 0.887. Still for that read-out and setting: the result for `CN1CCc2cc(Cl)c(O)cc2[C@@H](c2ccccc2)C1` (5 µM) reads 0.922; that for `CC(C)(C)[C@@]1(O)CCN2C[C@@H]3c4ccccc4CCc4cccc(c43)[C@H]2C1` (5 µM), 0.892; that for `C[C@H](NC[C@H](O)CP(=O)(O)CC1CCCCC1)c1ccc(Cl)c(Cl)c1` (5 µM), 0.924.

Turning to `Ic1ccc(N2CCN(Cc3c[nH]c4ncccc34)CC2)cc1` (5 µM), the cell viability amounted to 0.848. Still for that read-out and setting: the result for `COc1ccc2c3c1O[C@H]1C[C@@H](O)C=C[C@@]31CCN(C)C2` (5 µM) reads 0.665; that for `Cn1c(=O)c2c(nc(C=Cc3cccc(Cl)c3)n2C)n(C)c1=O` (5 µM), 0.988. The same measure, in the same setting: the result for `CCCCCCN(CCCCCC)C(=O)Cc1c(-c2ccc(F)cc2)[nH]c2ccccc12` (5 µM) reads 0.94. Still for that read-out and setting: the result for `CCN(CC)CCOC(=O)C1(c2ccc([N+](=O)[O-])cc2)CCCC1` (5 µM) reads 0.914; that for `Cn1c(=O)c2c(ncn2C)n(C)c1=O` (5 µM), 1.02. As for `CCOC(=O)N1CCC(=C2c3ccc(Cl)cc3CCc3cccnc32)CC1` (5 µM), the cell viability amounted to 0.993. Same read-out and setting: the result for `CCNC(=O)N1CCN(CCCC(c2ccc(F)cc2)c2ccc(F)cc2)CC1` (5 µM) reads 0.779.

Staying with this assay, now noted: 24 h.
Turning to `CN1CCC[C@H]1c1cccnc1` (5 µM), the cell viability came out at 1.12. The molecule `O=C(NCCNN1CCCCC1)c1ccc(I)cc1` (5 µM) registered a cell viability of 1.12. On the same count and under the same terms, the result for `Clc1ccccc1CN1CCc2sccc2C1` (5 µM) reads 0.806; that for `CC(C)C[C@H](NC(=O)[C@H](Cc1c[nH]c2ccccc12)NC(=O)[C@@H]1CCCN1C(=O)CNC(=O)[C@@H]1CCC(=O)N1)C(=O)N[C@@H](CCC(=O)O)C(=O)N[C@@H](CCC(=O)O)C(=O)N[C@@H](CCC(=O)O)C(=O)N[C@@H](CCC(=O)O)C(=O)N[C@@H](CCC(=O)O)C(=O)N[C@@H](C)C(=O)N[C@@H](CC1=CC=C(O)CC1)C(=O)NCC(=O)N[C@@H](Cc1c[nH]c2ccccc12)C(=O)O` (5 µM), 1.01. Turning to `COC(=O)[C@H]1[C@H]2C[C@H]3c4[nH]c5ccccc5c4CCN3C[C@@H]2CC[C@@H]1O` (5 µM), the cell viability was determined as 0.915. The same measure, in the same setting: the result for `CC[N+](CC)(CC)CCOc1ccc(/C=C/c2ccccc2)cc1` (5 µM) reads 1.3.

Turning to `CC(C)(C)NC[C@H](O)COc1nsnc1N1CCOCC1` (5 µM), the cell viability amounted to 1.05.

Regarding `O=C(O)[C@H]1CN[C@H](C(=O)O)C1` (5 µM), the cell viability was 1.41.

`CC(C)C[C@H](NC(=O)[C@H](CCCCN)NC(=O)[C@H](CCCNC(=N)N)NC(=O)[C@H](C)NC(=O)[C@H](CO)NC(=O)[C@H](CCCCN)NC(=O)[C@H](CCCNC(=N)N)NC(=O)[C@H](C)NC(=O)CNC(=O)[C@@H](NC(=O)[C@H](Cc1ccccc1)NC(=O)CNC(=O)CNC(=O)[C@@H](N)Cc1ccccc1)[C@@H](C)O)C(=O)N[C@@H](C)C(=O)N[C@@H](CC(N)=O)C(=O)N[C@@H](CCC(N)=O)C(=O)O` (5 µM) yielded a cell viability of 1.07 ± 0.32. `CNCC(O)c1ccc(O)c(O)c1` (racemic) (5 µM): the cell viability was 0.954. Same read-out and setting: the result for `NCCc1c[nH]cn1` (5 µM) reads 1.07; that for `N[C@@H](CCC(=O)O)C(=O)O` (5 µM), 1.16.

Molecule `Nc1ncnc2c1ncn2[C@@H]1O[C@H](COP(=O)(O)CP(=O)(O)OP(=O)(O)O)[C@@H](O)[C@H]1O` (5 µM) registered a cell viability of 1.29. On the same count and under the same terms, the result for `C=CCn1c(=O)c2c(nc(-c3ccccc3)n2C)n(C)c1=O` (5 µM) reads 1.11; that for `O=C(Nc1cccc(C(=O)Nc2ccc(S(=O)(=O)O)c3cc(S(=O)(=O)O)cc(S(=O)(=O)O)c23)c1)Nc1cccc(C(=O)Nc2ccc(S(=O)(=O)O)c3cc(S(=O)(=O)O)cc(S(=O)(=O)O)c23)c1` (5 µM), 1.1. Molecule `N[C@@H](Cc1cc(I)c(Oc2ccc(O)c(I)c2)c(I)c1)C(=O)O` [Triiodothyronine] (5 µM) yielded a cell viability of 1.1. `Cn1c(=O)c2nc(C3CCCC3)[nH]c2n(C)c1=O` (5 µM): the cell viability came out at 1.2.

With `N=C(N)c1ccc(OCCCCCOc2ccc(C(=N)N)cc2)cc1` (5 µM), the cell viability was determined as 1.09.

In turn, `CN1CCN(CCc2ccc(Cl)c(Cl)c2)CC1` (5 µM) returned a cell viability of 0.76. As for `Cc1ccc(N(CC2=NCCN2)c2cccc(O)c2)cc1` (5 µM), the cell viability stood at 0.988. Same read-out and setting: the result for `C=CC(N)CCC(=O)O` (stereo not given) (5 µM) reads 0.992; that for `CCN(Cc1ccncc1)C(=O)C(CO)c1ccccc1` (stereo not given) (5 µM), 1.24; that for `CC(C)(C)NCC(O)COc1cccc2[nH]c(=O)[nH]c12` (stereo not given) (5 µM), 1.02. In turn, `N=C(N)NCCCCN` (5 µM) returned a cell viability of 0.706. For the molecule `O=C(OCCN1CCCCC1)c1c[nH]c2ccccc12` (5 µM), the cell viability is 1.03. The same measure, in the same setting: the result for `NC[C@@H]1O[C@H](c2ccccc2)Cc2c1ccc(O)c2O` (5 µM) reads 1.04. Consider `CN1CCc2cc(Cl)c(O)cc2[C@@H](c2ccccc2)C1` (5 µM), for which the cell viability was found to be 1.26. As to `CC(C)(C)[C@@]1(O)CCN2C[C@@H]3c4ccccc4CCc4cccc(c43)[C@H]2C1` (5 µM), the cell viability is 1.16.

Molecule `C[C@H](NC[C@H](O)CP(=O)(O)CC1CCCCC1)c1ccc(Cl)c(Cl)c1` (5 µM) had a cell viability of 1.07.

For `Ic1ccc(N2CCN(Cc3c[nH]c4ncccc34)CC2)cc1` (5 µM), the cell viability stood at 1.2. Same read-out and setting: the result for `COc1ccc2c3c1O[C@H]1C[C@@H](O)C=C[C@@]31CCN(C)C2` (5 µM) reads 1.11; that for `Cn1c(=O)c2c(nc(C=Cc3cccc(Cl)c3)n2C)n(C)c1=O` (5 µM), 1.16; that for `CCCCCCN(CCCCCC)C(=O)Cc1c(-c2ccc(F)cc2)[nH]c2ccccc12` (5 µM), 1.06. The same measure, in the same setting: next, `CCN(CC)CCOC(=O)C1(c2ccc([N+](=O)[O-])cc2)CCCC1` (5 µM): 1.02; `Cn1c(=O)c2c(ncn2C)n(C)c1=O` (5 µM): 1.22; `CCOC(=O)N1CCC(=C2c3ccc(Cl)cc3CCc3cccnc32)CC1` (5 µM): 0.899.

`CCNC(=O)N1CCN(CCCC(c2ccc(F)cc2)c2ccc(F)cc2)CC1` (5 µM): the cell viability was 1.07.
